Data published in paper PMC7385925.
Results are given in words; binding and its absence hold for the method and conditions named.

Target: T1, REPRODUCTIVE MERISTEM 7 (Arabidopsis thaliana) (UniProt Q84R27)
T1 sequence: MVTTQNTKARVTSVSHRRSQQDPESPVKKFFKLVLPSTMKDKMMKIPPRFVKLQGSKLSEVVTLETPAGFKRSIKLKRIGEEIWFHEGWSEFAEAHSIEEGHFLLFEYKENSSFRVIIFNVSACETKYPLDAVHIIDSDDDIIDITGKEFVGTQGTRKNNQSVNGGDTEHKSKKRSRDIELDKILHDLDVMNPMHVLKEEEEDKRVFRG
Assay: two-hybrid; yeast two-hybrid assays; bait and prey orientation not told in the text shown

binding: no binding
B1: ARABIDOPSIS THALIANA HOMEOBOX PROTEIN 25 (protein, UniProt Q9FKP8 1-279)
chain: MEFEDNNNNNDEEQEEDMNLHEEEEDDDAVYDSPPLSRVLPKASTESHETTGTTSTGGGGGFMVVHGGGGSRFRFRECLKNQAVNIGGHAVDGCGEFMPAGIEGTIDALKCAACGCHRNFHRKELPYFHHAPPQHQPPPPPPGFYRLPAPVSYRPPPSQAPPLQLALPPPQRERSEDPMETSSAEAGGGIRKRHRTKFTAEQKERMLALAERIGWRIQRQDDEVIQRFCQETGVPRQVLKVWLHNNKHTLGKSPSPLHHHQAPPPPPPQSSFHHEQDQP
